Hit rate of the full screen: of about 52,000 sequences, about 210 (0.4%) were called active.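 Rule for the calls: active = gene whose silencing raises cell survival under the drug, median off-target-corrected z-score across its silencing RNAs 2 or more; inactive = the rest.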 Some of the results follow.

The experiment in a line: Resistance to Poly (ADP-Ribose) Polymerase inhibitor: Gene Identification via Genome-wide siRNA Screen. The settings on record: mouse BRCA2 R2336H ES cells, olaparib, CellTiter-Glo viability; stronger effect = higher value. In a few lines:
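Mouse BRCA2 R2336H ES cells were reverse-transfected with siRNA (20 nM final), treated at 48 h with 500 nM olaparib, and read by CellTiter-Glo after 72 h. Scores: MAD-based z per siRNA, median per gene, seed off-target correction.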
On the technique in general: ATP-based viability assays read luminescence as a measure of living cells.
With “GGUUGUGCUGUGAACAGAGTT against 2410012H02Rik”, the z-score was inactive: 1.19. For “GGACUGAGAGGGAUGGUAATT against A530016L24Rik”, the z-score is inactive: 1.1. For the sequence GGAGAUAUGACCAUCUCCUTT against Olfr798, the z-score was inactive: 0.199. CGGUCUGUUCCUAAUAAAUTT against Faim2: the z-score is inactive: -1.06.

As for GGGAGAUCAUGAUAGCAGCTT against Cox5b, the z-score is inactive: 0.374.

For GGCUAUCACCUCCAACACCTT against Fkbp8, the z-score was inactive: -0.71. The result for “GGAAGAAUUCGAAAAUGUGTT against 4921525D22Rik” reads inactive: -0.911. Take GGUUUAGGGCUUGCUAUAUTT against Mal: the z-score is inactive: -0.436. As for “GGUUCCUAAACAUACUUGUTT against 2900010J23Rik”, the z-score is inactive: -1.92.

Take “GGAAAGUUUUGGCGACUACTT against E330023O18”: the z-score is inactive: -0.972. Take “GGUGGUAUCACCUCUAUCATT against 1700019F09Rik”: the z-score was inactive: 0.64. Take GCCUUAAGGUCUCCGUUCUTT against Gse1: the z-score was inactive: -0.677.

Take GGGCCAAAAGCUUAUUAAUTT against Arhgap20: the z-score is inactive: 0.255.

Take GGCCUGGUUCUGCAUAAGCTT against Gas2: the z-score is inactive: 1.17. Consider GGGACAGGACAGUUAGAUGTT against Msc, for which the z-score is inactive: 1.3. Take GGGCCUAGUCAAAAUGUUGTT against Fbxo7: the z-score is inactive: -0.663. “CGAUCGAUAAAUGUAAUGATT against D930036F22Rik”: the z-score was inactive: 1.54.

Turning to GGAGAUCGUUGUCCAACUCTT against Trpc2, the z-score was inactive: -0.517. Regarding GCCGGUUGUAGAAAGGAGUTT against Frs2, the z-score is inactive: 0.736.

Regarding “GGAGCUACGAAGAGGAUCUTT against 0610008N23Rik”, the z-score is inactive: -0.675.

On to “GCGGAGAGAAAGAGCUGAGTT against C230071H18Rik”, for which the z-score is inactive: 0.109. Turning to GCUUAACUAGUAUCCUAUGTT against Tas2r135, the z-score is inactive: 0.53. As for GGUUCACCCAGGAAGUUCATT against Scn9a, the z-score is inactive: -2.27. Regarding GGAACAAUUGAUAAGACGATT against AA407526, the z-score was inactive: -0.681. Turning to GGAGCAUAAAAGAGAAAGATT against Jundm2, the z-score is inactive: -0.244.

Take CCUUAAACAGCUUUUCAGATT against Dnchc2: the z-score was inactive: 0.886.

Turning to GGCUAUGUGCUGCACUUGCTT against Cyp27a1, the z-score is inactive: 0.467. As to GGCCAUUGUAGAGCUGGUATT against Myh9, the z-score is inactive: -2.55. Regarding GCAGCUUUUGUACUAUCUATT against Kifap3, the z-score was inactive: -0.0279.

Take CCUGUUUGCAUAGAUAGACTT against Pdgfc: the z-score was inactive: -0.0813. To GGAGGUGGACCAAAAUGUCTT against Tessp2 belongs inactive: -1.57; to “GGGCAUGAUAAGGAAGACATT against 1700029F12Rik”, inactive: -1.57.

Consider CCACCUCACAUUAAAAAAGTT against Smc1l1, for which the z-score was inactive: 0.657. Consider GGAACAAGGAUGUAAAAUUTT against Olfr1090, for which the z-score was inactive: -0.69. Turning to AACUGUCACCGUUCAAACCTT against Ociad2, the z-score is inactive: -1.42. Regarding “GGAACUCUGUAGUUUUCAATT against 4732437J24Rik”, the z-score was inactive: -0.62. On to GGAGUAAAAAUGAGUAUGATT against Abcg3, for which the z-score is inactive: -1.48. GCAUGAUUCACCUGACACCTT against Titf1: the z-score is inactive: 1.01. In the case of CCCAUUGAACUGCAUACUATT against Car3, the z-score was inactive: -0.375.

CGAUAUGAUGUAUUCCAUCTT against Fcmd: the z-score is inactive: -0.232. Take “CCGUGUUUAAAGACAGUCCTT against B230369L08Rik”: the z-score was inactive: -0.645. On to GGAGCUCUAUAGAAAUGCATT against Cul3, for which the z-score was inactive: -0.355.

On to GGAUCACAGAAUAGAACAATT against Ptgds2, for which the z-score is inactive: -0.651. To “GGAUUAGACCUAUGGUGCUTT against B930011P16Rik” belongs inactive: 3.48. For the sequence GGGACAAGGACUUUAAAAATT against Scamp2, the z-score was inactive: 0.917. As for GGGCUGAUGAGCAAAGCAUTT against ORF21, the z-score is inactive: -0.817.

On to CCGACUCUUGGUGCCAUACTT against Hadhsc, for which the z-score was inactive: -0.689.

Turning to GCCUAUCAGAAGCUGUUAATT against Prkr, the z-score is inactive: -1.25. GGAGUGAUAGAAUCAACAUTT against Manea: the z-score is inactive: 0.82.

Consider “GGAAAAUGCCAUUCAUUUUTT against 4930401F20Rik”, for which the z-score is inactive: -0.824.

Turning to “CCUCUUAUCUCGAACAUUATT against 1700022L09Rik”, the z-score is inactive: -0.237. With GGUGGAUAAUGUUUAAACATT against V1rg7, the z-score is inactive: -0.136. As to GGAGGUCCCAGUCAUUAUCTT against Gdap1l, the z-score is inactive: 0.497.

Take GGAGCUCCUGAACAGGAUCTT against Gpr26: the z-score is inactive: 0.245. On to “CCAAGAAGGUUGGGAAAGCTT against 1100001I22Rik”, for which the z-score is inactive: -3.08. With CCAUAUGUAGCUAUGGUUATT against Cul2, the z-score is inactive: 1.04. As to GCACAAAUGGGAAUACGACTT against BC025816, the z-score is inactive: 1.07. For the sequence CGCACAGUACUUUUCUCCUTT against Rtn1, the z-score is inactive: 0.166. As for GCUCUAUCGUCCAAGCUUUTT against Dazap2, the z-score is inactive: 1.53. To GGCCCUAUGAUGAACCUAATT against Calb2 belongs inactive: -0.767; to CCUACUCGUGUCGUGAUAATT against Rxrb, inactive: -0.622. GCUCAGGUAUCUUCGAUUATT against LOC434179: the z-score was inactive: 1.78. For the sequence ACGAGGGCCUGAAAAACCUTT against Hbb-b2, the z-score is inactive: -1.6. To GCUUAACAACAGCAAGAACTT against V1rh14 belongs inactive: -0.334; to “GGGCCUGUUAAGCUCAAAGTT against 2610014H22Rik”, inactive: -0.534. Consider GGAAAAGAUGAAGUGGUUUTT against Hist1h2be, for which the z-score was inactive: 0.66.
